Tested on: unstimulated BMMØs
Test: MTS assay
Type: cell-based, C57BL/6J mice
Conditions: Mus musculus; unstimulated BMMØs treated for 48 hours; read-out: IC50 (MTS assay, cellular proliferation)
Experimental: The cytotoxicity of SAHA and SAHA-OH was evaluated using an MTS assay (Abcam; Cambridge, MA). […] BMMØs were pre-treated with various concentrations of SAHA or SAHA-OH for 48 hours. Cells were then washed with PBS and 50 μL of MTS solution was added to each well and incubated for 1 hour. The optical density (O.D.) of the solution was measured using a SpectraMax iD3 microplate reader at 570 nm. The percentage of cell proliferation was measured as the ratio of O.D. at 570 nm to no treatment control. IC50 values were calculated using GraphPad Prism 9 program based on a sigmoidal dose-response equation.

Compound: O=C(CCCCCCC(=O)Nc1ccccc1)NO [SAHA, N^1-hydroxy-N^8-phenyloctanediamide]
- IC50: 0.5 µM
